Reference: US20200121605A1, “METHODS AND COMPOSITIONS FOR LOCALIZED INTRADUCTAL DRUG DELIVERY TO THE BREAST AND REGIONAL LYMPH NODES” (South Dakota Board of Regents, priority 2018, published 2020)
Some entries share one result that the patent states for a list of compounds.

Experiment: Lymph node localization of tamoxifen PLGA formulations
Assay type: in vivo
Details: intraductal injection

CC/C(=C(\c1ccccc1)c1ccc(OCCN(C)C)cc1)c1ccccc1 [Free TMX, tamoxifen]
tamoxifen localized in the lymph node up to: ≤ 12 h
